Measurements published in US12479823B2, “Compound for use in retinal diseases” (ZHUHAI UNITED LABORATORIES CO., LTD., priority 2018, dated 2025).
At least one structure is not confirmed: it was looked up by name or label, or the drawing left a doubt.

Test: In vitro aldehyde capture capacity test (complexing with nonanal, HPLC at 254 nm)
Protocol: Objective: dry eye disease is caused by inflammation in eyes, wherein the inflammation may produce aldehydes that will accelerate the inflammation symptoms and worsen the dry eye disease if not eliminated in time. In the experiment, a better compound was selected according to the complexing capacity of the drug and aldehydes in vivo by simulating the in vivo environment.
Procedures: Sulfobutyl-B-cyclodextrin (310 mg) was dissolved in a phosphate buffer (1.25 mL) to prepare a solution.
Nonanal (5.0 mg, 32 μmol, 1.0 eq) and triolein (300 mg) were added to a reaction flask at room temperature, after addition of the prepared solution described above, linoleic acid (300 mg) was added, and finally a dimethyl sulfoxide (0.15 ml) solution containing the compound (32 μmol, 1.0 eq) of the present disclosure was added; the reaction solution was reacted at 20-23° C.
The reaction solution was reacted under stirring for 10 min, 100 min, 200 min, and 300 min respectively, and sampled for high performance liquid chromatography after the solution was stratified after standing for 2 min.
Sampling method: 25 μl of an upper emulsified layer and 50 μl of a lower aqueous phase were sampled by a pipette, and samples were diluted with 1 mL of methanol.
The ultraviolet absorption of the nonanal was weak at 254 nm, so the nonanal had little overall effect on the content of complexed products. Therefore, the percentage contents of complexes at 254 nm under high performance liquid chromatography were compared to observe aldehyde capture and complexing capacities, as shown in FIG. 1 and Table 1:
Taking The compound 7 as an example, after 300 min of reaction, the analytical method for HPLC was XBRIGE 2.5 μm, 3.0*100 mm 5-80CD_XBEH_12 min_0.8.1 cm;
Retention time 6.689 min, 6.787 min, 6.966 min, and 7.102 min were absorption peaks of products complexed with monomolecular aldehyde;
Retention time 8.905 min, 9.010 min, and 9.075 min were absorption peaks of products complexed with bimolecular aldehyde.

## CC(C)(O)c1cc(F)cc(-c2ccc(N)c(C(C)(C)O)n2)c1N [Compound 5]
Time 10 min
  percentage content of complexed products at 254 nm: 0.882%
Time 100 min
  percentage content of complexed products at 254 nm: 2.935%
Time 200 min
  percentage content of complexed products at 254 nm: 4.328%
Time 300 min
  percentage content of complexed products at 254 nm: 9.139%
Nonanal 1.0 eq, compound 1.0 eq, 20-23° C., 10-300 min, HPLC 254 nm
  Area under the curve AUC: 1208 min. Conversion
Nonanal 1.0 eq, compound 1.0 eq, 20-23° C., 10-300 min, HPLC 254 nm, in %/min
  Slope (linear equation of percentage content of complexed products vs time): 0.0271
